Measured values: PubChem BioAssay AID540276 (National Center for Advancing Translational Sciences (NCATS), 2011)
In all, about 300,000 compounds went through this assay and about 5,400 (1.8%) were called active. This list was built around the results that the source calls inconclusive (neither active nor inactive); the mix of calls is not that of the screen. Calls follow the shape of the full dose curve; tested in HEK293 cells. Potencies of inconclusive entries are doubtful fits and often do not repeat. Where a structure was tested more than once in an assay, its records may differ in their call.

Assay: qHTS for inhibitors of binding or entry into cells for Marburg Virus
Conditions: Marburg virus pseudotyped entry inhibition, cell reporter; series mostly up to 37.8 µM
Potency is read from the fitted curve at half-maximal effect.

Compound	Potency
O=C(c1ccco1)n1nc(-c2ccc(Cl)cc2)nc1NCc1ccc(F)cc1	inactive
CCOP(=O)(OCC)/C(C#N)=C/c1ccc(Br)cc1	inconclusive: 10 µM [inhibitor, partial curve, poor fit]
CCn1cc(-c2cc(C(F)(F)F)n3nc(C(=O)O)cc3n2)c(C)n1	inactive
O=C(CCC(=O)c1ccc(F)cc1)Nc1ccccc1Cl	inactive
CNC(=O)NC(=O)CSc1nnc(-c2ccc(F)cc2)n1CC1CCCO1 (configuration not stated)	inconclusive: 6.31 µM [activator, partial curve]
CCCOc1cccc(C2c3c(oc4ccc(F)cc4c3=O)C(=O)N2Cc2ccc3c(c2)OCO3)c1 (configuration not stated)	inconclusive: 3.16 µM [inhibitor, single point]
Cc1nc(-n2nc(C)c(Cc3ccc4c(c3)OCO4)c2C)sc1C(=O)Nc1ccc(Cl)cc1	inactive
COc1ccc(F)cc1S(=O)(=O)NC1CC(C)(C)NC(C)(C)C1	inconclusive: 2.82 µM [activator, full curve, poor fit]
Cc1cccc(N2C(=O)C=CC2=O)c1	inconclusive: 10 µM [inhibitor, partial curve, poor fit]
COc1ccc2[nH]c(-c3ccc(C)cc3)cc(=O)c2c1	inconclusive: 6.51 µM [inhibitor, full curve]
Cc1cc(NC(=O)CSc2nc(-c3ccc(F)cc3)cs2)no1	inconclusive: 0.82 µM [inhibitor, full curve, poor fit]
COc1ccc(N2CCN(CC(=O)Nc3ccccc3SC)CC2)cc1	inconclusive: 35.5 µM [inhibitor, single point]
O=C(CSc1nnc([C@@H]2CCCN2)o1)c1ccc(Cl)cc1	inactive
Cc1ccn2c(Nc3ccc4c(c3)OCO4)c(-c3ccccn3)nc2c1	inconclusive: 35.5 µM [inhibitor, single point]
COC(=O)c1cc2occc2n1Cc1nc(-c2cccc(Br)c2)oc1C	inactive
COc1ccc(CCNC(=O)c2cccc([N+](=O)[O-])c2)cc1OC	inconclusive: 6.31 µM [activator, single point]
C[C@@H]1CC[C@H]2C(=O)O[C@H](COc3ccc(C(C)(C)C)cc3)CN2[C@@H]1c1ccc(Br)cc1	inconclusive: 4.73 µM [inhibitor, partial curve, poor fit]
c1ccc(-n2ncc3c(N4CCN(CCOc5cccc6ccccc56)CC4)ncnc32)cc1	inconclusive: 10.3 µM [inhibitor, partial curve, poor fit]
Cc1ccsc1C1Nc2ccc3ncccc3c2C2=C1C(=O)CC(C)(C)C2 (configuration not stated)	inconclusive: 9.2 µM [inhibitor, single point]
O=C(Nc1ccccc1O)c1cccc(S(=O)(=O)Nc2ccccc2O)c1	inactive
O=C(N1CCCC1)C12CC3CC(CC(C3)C1)C2	inactive
O=C(NC1CCCCCC1)C1Cc2ccccc2CN1C(=O)c1ccco1 (configuration not stated)	inconclusive: 6.31 µM [inhibitor, single point]
O=[N+]([O-])c1ccccc1S(=O)(=O)n1cnc2ccccc21	inactive
O=C1CCN(Cc2ccco2)C(=S)N1	inactive

Three entries from above, set out differently:
Compound,Potency
COC(=O)c1cc2occc2n1Cc1nc(-c2cccc(Br)c2)oc1C,inactive
c1ccc(-n2ncc3c(N4CCN(CCOc5cccc6ccccc56)CC4)ncnc32)cc1,"inconclusive: 10.3 µM [inhibitor, partial curve, poor fit]"
O=C(NC1CCCCCC1)C1Cc2ccccc2CN1C(=O)c1ccco1 (configuration not stated),"inconclusive: 6.31 µM [inhibitor, single point]"

Continued:

Compound	Potency
Cc1ccc2c(c1)NC(=O)CC(c1ccccc1)=N2	inactive
COc1ccc(NC(=O)C/C(C)=N/NC(=O)CCc2ccccc2)c(OC)c1	inactive
O=S(=O)(c1cccc(-c2cn3cccnc3n2)c1)N1CCCCCC1	inactive
CCn1c2ccccc2c2cc(NC(=O)COc3ccc(OC)cc3)ccc21	inconclusive: 29.1 µM [inhibitor, single point]
Cc1onc(-c2ccccc2Cl)c1C(=O)OCC(=O)Nc1ccc2c(c1)OCO2	inactive
O=C1NN(c2ccc(Br)cc2)C(=O)/C1=C\c1ccc(O)cc1O	inconclusive: 8.91 µM [inhibitor, partial curve, poor fit]
COc1cccc(C2C(C#N)=C(C)NC3=C2C(=O)CC(C)(C)C3)c1 (configuration not stated)	inconclusive: 0.794 µM [inhibitor, full curve, poor fit]
CCn1c(SCC(=O)N2CCCC2)nnc1-c1ccc(N)cc1	inconclusive: 0.447 µM [inhibitor, partial curve, poor fit]
O=C(NNC1CC(=O)N(c2cccc(Cl)c2)C1=O)c1cccs1 (configuration not stated)	inactive
CCCCN(CC)CCNC(=O)c1ccc2c(Cl)c3c(nc2c1)CCC3	inconclusive: 11.2 µM [inhibitor, partial curve, poor fit]
O=C(NCC1CCCO1)c1cccc(Oc2ccccc2)c1 (configuration not stated)	inconclusive: 12.6 µM [activator, partial curve, poor fit]
Cc1ccc(C(C)C)c(OCC(O)CN(C)Cc2ccccc2)c1 (configuration not stated)	inconclusive: 35.5 µM [inhibitor, partial curve, poor fit]
Cc1ccsc1C(=O)NCCC(c1ccccc1)c1ccccc1	active: 12.6 µM
COc1ccc(S(=O)(=O)NCCc2csc(-c3cccnc3)n2)cc1	inactive
O=C(Nc1ccc(F)cc1F)c1cccc(C(=O)Nc2ccc(F)cc2F)n1	inactive
CCCc1cc(=O)[nH]c(SCc2nc3ccc([N+](=O)[O-])cc3[nH]2)n1	inactive
O=C(Nc1cccc(S(=O)(=O)NCc2ccco2)c1)c1cc(-c2ccccc2)nc2ccccc12	inconclusive: 20.6 µM [inhibitor, single point]
Cc1ccccc1Nc1nc(N)nc(CSc2nnc(-c3ccccc3)n2C)n1	inactive
COC(=O)C1=C(C(=O)OC)[C@@H]2N(C)c3ccc(OC)cc3[C@@]23C[C@@H](C(=O)OC)N(C(=O)c2cccs2)C3=N1	inconclusive: 7.5 µM [inhibitor, single point]
N#Cc1cc2[nH]c3ccccc3c2[n+](-c2ccc([N+](=O)[O-])cc2)c1N	inconclusive: 20 µM [inhibitor, partial curve, poor fit]
O=S(=O)(NCc1ccccc1)NCc1ccccc1	inconclusive: 5.62 µM [activator, full curve, poor fit]
CC(C)(C)c1cc(C(=O)NN)n(Cc2ccc(Cl)cc2Cl)n1	active: 11.2 µM
COc1cc2c(cc1OC)CN(C(=O)c1ccc3nc[nH]c3c1)CC2	inconclusive: 0.651 µM [inhibitor, full curve]
COc1ccc2[nH]c(=O)c(CN(CCCN(C)C)C(=O)Nc3ccc(F)cc3)cc2c1	inconclusive: 35.5 µM [inhibitor, single point]

Compound	Potency
Cc1ccccc1NC(=S)N(Cc1ccccn1)Cc1ccccc1Cl	inconclusive: 17.8 µM [inhibitor, partial curve, poor fit]
COc1ccccc1NC(=O)Nc1nc(C(C)(C)C)cs1	inconclusive: 15.8 µM [inhibitor, single point]
O=C(CSCC(=O)N1CCOCC1)Nc1ccccc1	inactive
COc1ccc(CNC(=O)c2nc(S(=O)(=O)Cc3ccccc3)ncc2Cl)cc1	inactive
CCN(CC)S(=O)(=O)c1cccc(C(=O)NC(Cc2c[nH]c3ccccc23)c2nnc3n2CCC3)c1 (configuration not stated)	inactive
COc1ccccc1N(C)S(=O)(=O)c1ccc(C(=O)Nc2cccc(Br)c2)cc1	inconclusive: 25.1 µM [inhibitor, single point]
CSc1nc(Cl)c(Br)c(Nc2c[nH]c(=O)[nH]c2=O)n1	inactive
Oc1c(C=Nc2ccccc2)sc2ccccc12	inconclusive: 1.26 µM [activator, partial curve, poor fit]
CCCN(CC(=O)Nc1ccc(F)c(F)c1F)C(=O)c1ccc(=O)n(Cc2ccccc2)n1	inactive
COc1ccc([N+](=O)[O-])cc1NC(=O)Cc1ccc(Cl)cc1	inconclusive: 2.51 µM [inhibitor, full curve, poor fit]
O=C(CCC1N=C2c3ccccc3N=C(SCc3ccc(F)cc3)N2C1=O)NCc1ccco1 (configuration not stated)	inactive
CCN1C(=NCc2cccc(C(F)(F)F)c2)NC(c2ccccc2)C(C(=O)OC)=C1C (configuration not stated)	inconclusive: 2.99 µM [inhibitor, single point]
Fc1ccc2nc3[nH]c4ccccc4c3nc2c1	inconclusive: 35.5 µM [inhibitor, single point]
COc1ccc2[nH]c(=O)c(CN(C(=O)c3cccnc3)c3ccc(C)cc3C)cc2c1	inconclusive: 8.91 µM [inhibitor, partial curve]
C/C(=N\NC(=O)c1ccc(Cl)c(Cl)c1)c1ccccn1	inconclusive: 2.82 µM [inhibitor, partial curve, poor fit]
COc1ccc(Oc2ccccc2/C=C/C(=O)O)cc1	inconclusive: 29.1 µM [activator, single point]
Cc1ccccc1CNCCSc1nnnn1-c1ccccc1	inactive
NCCCS(=O)(=O)O	active: 8.2 µM
Cn1c(=O)n(CCCOc2ccc(Br)cc2)c2ccccc21	inactive
Cc1ccc(-n2c(=O)c3ccc(C(=O)NCc4ccco4)cc3n(Cc3ccc(Cl)cc3)c2=O)cc1	inactive
CCOC(=O)N1CCN(Cc2nc3cc(NC(=O)c4ccccc4OC)ccc3n2C(C)C)CC1	inconclusive: 1.26 µM [inhibitor, full curve, poor fit]
CCOC(=O)C1=C(C)N=c2sc(=C(C)C)c(=O)n2C1c1ccc(N(C)C)cc1 (configuration not stated)	inconclusive: 2.31 µM [inhibitor, full curve, poor fit]
O=C(Nc1ccc(NC(=O)c2ccccc2Cl)cc1)c1cccnc1	inconclusive: 5.62 µM [activator, single point]
COc1ccc(C)cc1S(=O)(=O)N(CC(=O)Nc1cccc([N+](=O)[O-])c1)c1ccc(C)cc1	inconclusive: 11.2 µM [inhibitor, partial curve]
